## Assay results

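Vaccinia-infected cells with a two-color viral stage reporter; Venus fluorescence read on a plate reader; the cell line is not named here; timing not stated here.
The test concentration is not given here.
Percent change in Venus reporter signal; lower (more negative) values mean stronger inhibition of that viral stage.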

Values are in %.
How 0% and 100% were set is not given here.
Common to all entries: measured here: Venus reporter, other viral stage.
This is a side read-out of the assay, for part of the compounds, not drawn at random.

compound,activity change (Venus) (%)
Cc1ccccc1-c1ccc2c(c1)O[C@@H](CN(C)C)[C@H](C)CN([C@@H](C)CO)S2(=O)=O,-25.4
N#C[C@H]1[C@@H](c2ccccc2C2=CCCC2)[C@@H](CO)N1C(=O)C1CC1,-31.48
C[C@H](CO)N1C[C@H](C)[C@H](CN(C)C(=O)Nc2ccc(F)cc2)Oc2ncc(-c3cccc(F)c3)cc2C1=O,-32.27
C[C@@H]1CN([C@@H](C)CO)C(=O)c2cc(C#CCc3ccccc3)cnc2O[C@@H]1CN(C)CC1CC1,-43.94
C[C@@H]1CN([C@H](C)CO)C(=O)c2cc(NS(=O)(=O)c3ccc(F)cc3)ccc2O[C@@H]1CN(C)Cc1ccc(C(F)(F)F)cc1,-30.45
C[C@H]1CN([C@@H](C)CO)S(=O)(=O)c2ccc(-c3ccc(F)cc3)cc2O[C@@H]1CN(C)S(C)(=O)=O,-24.81
C[C@H]1CCCCO[C@H](CN(C)C(=O)CCC(F)(F)F)[C@@H](C)CN([C@@H](C)CO)C(=O)c2cc(NS(=O)(=O)c3ccc(Cl)cc3)ccc2O1,-53.16
O=C(Nc1ccccc1F)N1CC(=O)N2[C@H](C1)[C@H](c1ccc(C#CC3CCCC3)cc1)[C@@H]2CO,-34.23
C[C@H](CO)N1C[C@H](C)[C@H](CN(C)S(C)(=O)=O)Oc2cc(C#Cc3ccccc3)ccc2S1(=O)=O,-28.28
C[C@@H]1CCCCO[C@H](CN(C)Cc2ccc(C(F)(F)F)cc2)[C@H](C)CN([C@@H](C)CO)C(=O)c2cc(NS(=O)(=O)c3cccs3)ccc2O1,-52.64
C[C@@H]1CN([C@@H](C)CO)S(=O)(=O)c2ccc(-c3ccccc3)cc2O[C@H]1CN(C)S(=O)(=O)c1ccccc1F,-42.61
C[C@H](CO)N1C[C@H](C)[C@@H](CN(C)Cc2ccccc2F)Oc2ncc(C3=CCCCC3)cc2C1=O,-44.57
O=S(=O)(Cc1ccccc1)N1C[C@@H]2N[C@H](C1)C2c1ccc(-c2ccccc2)cc1 (some centres not stated),-79.47
COc1ccccc1-c1ccc([C@H]2[C@H](CO)N3CCCCN(S(=O)(=O)c4cn(C)cn4)C[C@@H]23)cc1,-42.18
C[C@@H]1CN([C@H](C)CO)C(=O)c2c(c3ccccc3n2C)-c2ccccc2CO[C@H]1CN(C)C(=O)Nc1ccccc1C(F)(F)F,-47.31
Fc1cccc(CN2C[C@@H]3N[C@H](C2)C3c2ccc(-c3cncnc3)cc2)c1 (some centres not stated),-47.92
C[C@H](CO)N1C[C@H](C)[C@H](CN(C)C(=O)Nc2ccc3c(c2)OCO3)Oc2ncc(-c3cc4ccccc4o3)cc2C1=O,-59.05
CCCNC(=O)N1CC(=O)N2[C@H](C1)[C@@H](c1ccc(C#Cc3cccc(F)c3)cc1)[C@@H]2CO,-37.26
COc1ccc(S(=O)(=O)N(C)C[C@@H]2Oc3ccc(NC(=O)Nc4ccc(C(F)(F)F)cc4)cc3CC(=O)N([C@H](C)CO)C[C@@H]2C)cc1,-24.48
C[C@@H]1CCCCO[C@@H](CN(C)C(=O)Nc2ccc(F)cc2)[C@H](C)CN([C@H](C)CO)C(=O)c2cc(NS(=O)(=O)c3ccccc3)ccc2O1,-35.27
CC(C)C#Cc1ccc2c(c1)O[C@@H](CN(C)C(=O)Nc1ccccc1)[C@H](C)CN([C@@H](C)CO)S2(=O)=O,-42.21
OC[C@H]1[C@@H](c2ccc(-c3ccc(F)cc3)cc2)[C@@H]2CN(Cc3ccncc3)CCCCN12,-28.38
Cc1ccc(S(=O)(=O)Nc2ccc3c(c2)C(=O)N([C@@H](C)CO)C[C@H](C)[C@@H](CN(C)Cc2ccc(C(F)(F)F)cc2)OCCCC[C@H](C)O3)cc1,-85.43
C[C@H](CO)N1C[C@H](C)[C@H](CN(C)Cc2ccc(C(F)(F)F)cc2)Oc2ccc(NC(=O)CCCCCC(=O)Nc3ccccc3N)cc2CC1=O,-42.87
COc1ccc2c3c([nH]c2c1)[C@H](CO)N(Cc1ccccc1)CC31CCN(CC2CC2)CC1,-70.76
Cc1noc(C)c1S(=O)(=O)N(C)C[C@@H]1OCCCC[C@@H](C)Oc2ccc(NS(=O)(=O)c3ccc(Cl)cc3)cc2C(=O)N([C@H](C)CO)C[C@H]1C,-50.44
C[C@@H]1CN([C@H](C)CO)C(=O)c2cc(NS(=O)(=O)c3ccc(F)cc3)ccc2O[C@@H](C)CCCCO[C@@H]1CN(C)C(=O)C1CCCCC1,-54.22
CN1c2ccc(-c3ccccc3)cc2[C@H]2[C@H](CCN2S(=O)(=O)c2ccccc2F)[C@H]1CO,-35.61
Cc1cccc(S(=O)(=O)N2CCCCN3[C@@H](CO)[C@H](c4ccc(C#CC(C)C)cc4)[C@@H]3C2)c1,-42.98
Cc1ccc(S(=O)(=O)N(C)C[C@H]2Oc3cc(C#CC4CCCC4)ccc3S(=O)(=O)N([C@H](C)CO)C[C@H]2C)cc1,-40.54

Some entries from above, unchanged:

compound	activity change (Venus) (%)
C[C@@H]1CN([C@@H](C)CO)C(=O)c2cc(C#CCc3ccccc3)cnc2O[C@@H]1CN(C)CC1CC1	-43.94
C[C@@H]1CN([C@H](C)CO)C(=O)c2cc(NS(=O)(=O)c3ccc(F)cc3)ccc2O[C@@H]1CN(C)Cc1ccc(C(F)(F)F)cc1	-30.45

Data taken from PubChem BioAssay AID1053133, deposited by Broad Institute (2014).